Experimental data from the supplement of paper PMC12889115.
The other results are listed elsewhere or left out. Values are raw readings; no control value is given beside them.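 Primary screen: polymyxin B was added at a level permeabilizing Salmonella outer membranes while sparing inner membranes. DMSO wells, both with and without polymyxin B, established maximum growth. Plate-to-plate variation meant each plate was ranked on its own, and the lowest-OD600 compounds were selected as hits.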

Tested on: Salmonella enterica serovar Typhimurium SL1344
Test: bacterial growth OD600 after 18 h with compound and polymyxin B; higher = more bacterial growth (less inhibition)
Conditions: 50 µM, Mueller-Hinton broth

SMILES	bacterial growth OD600 (polymyxin B 0.75 µg/mL)	bacterial growth OD600 (polymyxin B 1 µg/mL)
CC(C)CN1CCC(CN(C)C(=O)c2cc(COc3c(F)cccc3F)on2)CC1	0.924	–
CCn1cc(C(=O)N2CCc3[nH]nc(-c4ccc5c(c4)OCO5)c3C2)cn1	0.736	–
COc1cccc(CC2(CO)CCN(CC3=CC[C@H]4C[C@@H]3C4(C)C)CC2)c1	0.753	–
CC(=O)NCCC1CCN(c2nc3nonc3nc2N(C)Cc2ccccc2)CC1	–	0.926
CC(c1ccccc1)c1cc(C(=O)NCCc2cccs2)on1 (configuration not stated)	0.622	–
CCS(=O)(=O)c1ncc(CN2CCC(OC)CC2)n1CCCc1ccccc1	–	0.543
COCCN1C(=O)CC(CC(=O)N2CCCC(C(=O)c3nccn3C)C2)(c2ccccc2F)C1=O (configuration not stated)	0.916	–
COc1ccccc1CC(=O)N1CCC(C(Cc2ccccc2)N(C)C(=O)Cn2cccn2)CC1 (configuration not stated)	0.991	–
CC(C)CCC(=O)NCC1Cc2cccc(-c3cncnc3)c2O1 (configuration not stated)	0.897	–
Cc1oc(-c2ccc(NC(=O)Cc3ccccc3)cc2)nc1CNC(=O)c1ccc2c(c1)OCO2	0.879	–
CC(=O)N1CCC(NC2CC(C)(C)Cc3c2cnn3-c2ccc(F)cc2)CC1 (configuration not stated)	–	0.927
CCNc1ccc(C(=O)N2CCC(Oc3cccnc3)CC2)cn1	–	0.899
CCCN(CC1CC1)C(=O)c1cc(NC(=O)COC)c2c(c1)ncn2CCc1ccccc1	0.798	–
CCc1ccc(CN2CCCC(CNC(=O)c3cccc(OC)c3OC)C2)cc1 (configuration not stated)	–	0.834
O=C(NCc1ccccc1F)c1cc(CN2CCOCC2)on1	–	0.948
CC(C)NC(=O)C1CCC(=O)N(CCc2cccc(F)c2)C1 (configuration not stated)	–	0.935

SMILES	bacterial growth OD600 (polymyxin B 0.75 µg/mL)	bacterial growth OD600 (polymyxin B 1 µg/mL)
CN(CCc1cn[nH]c1)C(=O)CC(c1ccccc1)c1ccc(Cl)cc1 (configuration not stated)	–	0.606
CN(C(=O)Cn1nnnc1CN1CCOCC1)C1CCCc2ccccc21 (configuration not stated)	0.839	–
CC1CCN(C(=O)CN2Cc3ccccc3OC(c3ccccc3F)C2)CC1 (configuration not stated)	0.006	–
OC1CCCN(c2ncccc2CNC2CSCCSC2)C1 (configuration not stated)	–	0.992
CCCC(=O)N1CCC2(CCCN(Cc3cc(OC)ccc3F)C2=O)C1 (configuration not stated)	–	0.769
CC1(C)Cc2nc(C(C)(C)C)ncc2C(NC(=O)CCCn2cncn2)C1 (configuration not stated)	0.765	–
CSCCNCc1c(C(=O)N(C)CCc2ccccc2)nc2sccn12	–	0.722
COC(=O)c1c(S(=O)(=O)NCc2ccccc2)sc2c1CCN(C(=O)c1ccccc1)C2	0.957	–
O=C(c1ccc(N2CCCCCCC2)nc1)N1CCCN(c2ncccn2)CC1	–	0.891
O=C(CN1CCCCC1=O)NC1CCCc2c1cnn2-c1ccc(F)cc1F (configuration not stated)	–	0.818
CCN1CCN(C2(C(=O)NCCc3ccccc3F)Cc3ccccc3C2)CC1	0.787	–
Cc1nc(C)c(C(=O)N2CCC(C3(Cc4ccc(F)cc4)NC(=O)N(CC4CC4)C3=O)CC2)s1 (configuration not stated)	0.808	–
COCCNc1nc(CN2CCCCC2C(=O)OC)nc2c(C)cccc12 (configuration not stated)	0.85	–
O=C(NCc1ccccc1F)c1ccc(OC2CCN(C(=O)C3CC3)CC2)cc1	–	1.15
COc1cccc(N2CCN(C(=O)C3CCC(=O)N(C4CC4)C3)CC2=O)c1 (configuration not stated)	–	0.924
Cn1cc(CN2CCC(Oc3ccc(C(=O)NCc4ccccn4)cc3)CC2)cn1	–	0.976

Complete entries from above. Values in the order: bacterial growth OD600 (polymyxin B 0.75 µg/mL) | bacterial growth OD600 (polymyxin B 1 µg/mL)
`OC1CCCN(c2ncccc2CNC2CSCCSC2)C1` (configuration not stated) is entered as – | 0.992
`COc1cccc(N2CCN(C(=O)C3CCC(=O)N(C4CC4)C3)CC2=O)c1` (configuration not stated) is entered as – | 0.924
`O=C(CN1CCCCC1=O)NC1CCCc2c1cnn2-c1ccc(F)cc1F` (configuration not stated) is entered as – | 0.818
